{"source": "PubChem BioAssay AID2685", "about": "(National Center for Advancing Translational Sciences (NCATS), 2010)", "note": "Screen size: about 320,000 compounds; about 2,100 (0.66%) were called active. The call rests on the fitted dose curve; in most records, active means well fitted inhibition curve with a large enough effect in the signal ratio, with a control signal flat (not every such curve was filed as active); inconclusive means small, poorly fitted or top-dose-only effect, or effect the other way, or a change in a side signal; inactive means flat fitted curve, though single readings scatter; the % refers to the signal ratio. Inconclusive results, whose numbers are uncertain, are shown. Potencies beside an inconclusive call are fits to weak or partial responses and may not hold up. On the % scale 0 is the no-effect control and ±100 the full control effect; potency means the concentration at half of the fitted maximal effect.", "data": [{"test": "qHTS Assay for Lipid Storage Modulators in Drosophila S3 Cells", "conditions": "BODIPY lipid droplet fluorescence, 18-24 h, cells fed with added oleic acid; lipid storage change, negative = inhibition: at 46.1 µM (top of the series) unless noted", "method_in_brief": "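Drosophila S3 cells got compounds at several concentrations plus oleic acid (400 uM solution). Laser-scanning cytometry with 488 nm excitation read lipid droplets at 500-530 nm and cells at 575-640 nm. Percent activity was relative to 20 uM Triacsin C.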", "values": [{"compound": "O=[N+]([O-])c1cccc(NC(=S)N2CCc3ccccc3C2)c1", "lipid storage change, negative = inhibition": "inconclusive: 28.6%"}, {"compound": "CC(C)CNC(=O)COC(=O)Cc1ccc(Cl)cc1", "lipid storage change, negative = inhibition": "inconclusive: -25.8%"}, {"compound": "CC(C)c1nc2cc(Cl)ccc2n(Cc2ccccc2)c1=O", "lipid storage change, negative = inhibition": "inconclusive: 168%"}, {"compound": "CCOc1ccccc1Nc1nc2ccccc2n2cnnc12", "lipid storage change, negative = inhibition": "inconclusive: 30.7%"}, {"compound": "Cc1cccc(C)c1NC(=S)N1CC(C)OC(C)C1", "note": "(configuration not stated)", "lipid storage change, negative = inhibition": "inconclusive: -18%"}, {"compound": "CCOC(=O)C(=O)C1=C(N2CCOCC2)/C(=C\\c2ccc(F)cc2)CC1", "Potency": "inconclusive: 14.6 µM [activator, partial curve, poor fit]"}, {"compound": "CC(=O)Nc1cccc(C(=O)N(CCc2ccccc2)Cc2ccccc2)c1", "lipid storage change, negative = inhibition": "inconclusive: 56.4%"}, {"compound": "COC(=O)c1ccc(NC(=O)c2ccc(NC(=O)c3ccco3)cc2)cc1", "Potency": "inconclusive: 29.1 µM [falling, single point]"}, {"compound": "Cc1ccccc1N1CCN(C2CCCN(C(=O)c3ocnc3C)C2)CC1", "note": "(configuration not stated)", "lipid storage change, negative = inhibition": "inconclusive: 116%"}, {"compound": "O=C1CC(N2CCN(c3ccccn3)CC2)C(=O)N1c1ccc(Cl)cc1", "note": "(configuration not stated)", "lipid storage change, negative = inhibition": "inconclusive: 13.6%"}, {"compound": "COC(=O)CCCn1nc(NC(=O)c2ccco2)cc1C", "lipid storage change, negative = inhibition": "inconclusive: -43%"}, {"compound": "CCc1cc2cc(C)c(C)cc2nc1SCC(=O)NNC(=O)c1ccco1", "lipid storage change, negative = inhibition": "inconclusive: 14.8%"}, {"compound": "CC(=O)N1CCSc2ccc(S(=O)(=O)NCCc3ccc(C)cc3)cc21", "lipid storage change, negative = inhibition": "inconclusive: -100%"}, {"compound": "COc1ccc(CCn2nnnc2C(C(C)C)N2CCN(c3ncccn3)CC2)cc1OC", "note": "(configuration not stated)", "Potency": "inconclusive: 2.06 µM [activator, full curve, poor fit]"}, {"compound": "Cc1ccc(S(=O)(=O)NCCC(=O)Nc2ccc(Cl)c(Cl)c2)cc1C", "Potency": "inconclusive: 29.1 µM [cytotoxic, single point]"}, {"compound": "CC1C(=O)Nc2ccccc2N1C(=O)C1CC1", "note": "(configuration not stated)", "lipid storage change, negative = inhibition": "inconclusive: 8.67%"}, {"compound": "O=C1CSC(c2ccc(F)cc2)N1c1c(F)cccc1F", "note": "(configuration not stated)", "lipid storage change, negative = inhibition": "inconclusive: -24.8%"}, {"compound": "CCN1CCc2nc3sc(C(=O)Nc4cccnc4Cl)c(N)c3cc2C1", "Potency": "inconclusive: 29.1 µM [falling, single point]"}, {"compound": "Cn1cccc1/C=C1\\SC(=S)N(Nc2ccccc2)C1=O", "lipid storage change, negative = inhibition": "inconclusive: -5.09%"}, {"compound": "CC(=O)Nc1ccc(NC(=O)c2ccccc2CCc2ccccc2)cc1", "lipid storage change, negative = inhibition": "inconclusive: -1.3%"}, {"compound": "O=C(Nc1c(Cl)ccc2nsnc12)c1cccnc1", "Potency": "inconclusive: 0.0073 µM [activator, full curve, poor fit]"}, {"compound": "O=C(NCc1ccccn1)C1CCN(Cc2cnn(-c3ccccc3)c2-n2cccc2)CC1", "Potency": "inconclusive: 0.58 µM [activator, single point]"}]}]}
